{"source": "PubChem BioAssay AID1259425 (University of Nebraska Medical Center, 2018)", "test": "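Seek colon cancer weak points whose silencing resembles KSR1 loss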 (primary screen)", "system": "HCT116 human colon cancer cells", "reagents": "siRNA pool against human genes, 50 nM siRNA", "measured": "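mRNA of six signature genes measured together by branched-DNA assay after 50 nM siRNA pool, blank removed, divided by geometric mean of two housekeeping genes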", "direction": "BNIP3L mRNA: higher = more BNIP3L transcript after knockdown", "note": "In all, the deposit lists about 14,000 reagents; below is a part drawn at random. Not all columns of the deposit are shown. Not given: the time to read-out."}
{"target gene": "MT-ND5", "BNIP3L mRNA, set 1": 0.059}
{"target gene": "PLA2G4C", "BNIP3L mRNA, set 1": 0.0661}
{"target gene": "RASL10A", "BNIP3L mRNA, set 1": 0.12}
{"target gene": "MRTFA", "BNIP3L mRNA, set 1": 0.0805}
{"target gene": "DRD4", "BNIP3L mRNA, set 1": 0.0993}
{"target gene": "ZC3H3", "BNIP3L mRNA, set 1": 0.166}
{"target gene": "FGF17", "BNIP3L mRNA, set 1": 0.104}
{"target gene": "RHOQ", "BNIP3L mRNA, set 1": 0.0789}
{"target gene": "DDX41", "BNIP3L mRNA, set 1": 0.0899}
{"target gene": "MTNR1B", "BNIP3L mRNA, set 1": 0.119}
{"target gene": "GLMN", "BNIP3L mRNA, set 1": 0.0816}
{"target gene": "PLA2G12B", "BNIP3L mRNA, set 1": 0.201}
{"target gene": "REL", "BNIP3L mRNA, set 1": 0.0721}
{"target gene": "CASP4", "BNIP3L mRNA, set 1": 0.124}
{"target gene": "PMM2", "BNIP3L mRNA, set 1": 0.0831}
{"target gene": "F2RL2", "BNIP3L mRNA, set 1": 0.12}
{"target gene": "PRDM14", "BNIP3L mRNA, set 1": 0.225}
{"target gene": "CDC73", "BNIP3L mRNA, set 1": 0.115}
{"target gene": "SVIL", "BNIP3L mRNA, set 1": 0.0658}
{"target gene": "ADAMTS15", "BNIP3L mRNA, set 1": 0.0902}
{"target gene": "SPATA31A7", "BNIP3L mRNA, set 1": 0.123}
{"target gene": "SPINK1", "BNIP3L mRNA, set 1": 0.123}
{"target gene": "KIF2B", "BNIP3L mRNA, set 1": 0.0871}
{"target gene": "ZNF655", "BNIP3L mRNA, set 1": 0.0955}
{"target gene": "CPNE7", "BNIP3L mRNA, set 1": 0.0749}
{"target gene": "TSC22D2", "BNIP3L mRNA, set 1": 0.163}
{"target gene": "ICE1", "BNIP3L mRNA, set 1": 0.12}
{"target gene": "LIM2", "BNIP3L mRNA, set 1": 0.193}

Entries listed so far whose gene name starts with R or r (3):
{"target gene": "RASL10A", "BNIP3L mRNA, set 1": 0.12}
{"target gene": "RHOQ", "BNIP3L mRNA, set 1": 0.0789}
{"target gene": "REL", "BNIP3L mRNA, set 1": 0.0721}
